Positions count from the first letter of the chain named. Read-outs that look alike come from different tables or passages of the source. No constants are given. Whether binding was seen depends on the method and setting. Binding seen in cells or lysates may run through a third protein. These calls come from enrichment with a bait or labelling near it, and not all partners need be listed. For part of these data: A no says only that the protein was not detected with the bait. For part of these data: Sequences can lack the tags named with a protein. One block for each molecule: values may come before it.
How the values were obtained:
Assay in all cases: proximity labelling
[1] = molecular target: T1, Trbo-BicD (wild-type Bicaudal-D tagged with TurboID on its N-terminus) (Drosophila) (UniProt P16568)
T1 sequence: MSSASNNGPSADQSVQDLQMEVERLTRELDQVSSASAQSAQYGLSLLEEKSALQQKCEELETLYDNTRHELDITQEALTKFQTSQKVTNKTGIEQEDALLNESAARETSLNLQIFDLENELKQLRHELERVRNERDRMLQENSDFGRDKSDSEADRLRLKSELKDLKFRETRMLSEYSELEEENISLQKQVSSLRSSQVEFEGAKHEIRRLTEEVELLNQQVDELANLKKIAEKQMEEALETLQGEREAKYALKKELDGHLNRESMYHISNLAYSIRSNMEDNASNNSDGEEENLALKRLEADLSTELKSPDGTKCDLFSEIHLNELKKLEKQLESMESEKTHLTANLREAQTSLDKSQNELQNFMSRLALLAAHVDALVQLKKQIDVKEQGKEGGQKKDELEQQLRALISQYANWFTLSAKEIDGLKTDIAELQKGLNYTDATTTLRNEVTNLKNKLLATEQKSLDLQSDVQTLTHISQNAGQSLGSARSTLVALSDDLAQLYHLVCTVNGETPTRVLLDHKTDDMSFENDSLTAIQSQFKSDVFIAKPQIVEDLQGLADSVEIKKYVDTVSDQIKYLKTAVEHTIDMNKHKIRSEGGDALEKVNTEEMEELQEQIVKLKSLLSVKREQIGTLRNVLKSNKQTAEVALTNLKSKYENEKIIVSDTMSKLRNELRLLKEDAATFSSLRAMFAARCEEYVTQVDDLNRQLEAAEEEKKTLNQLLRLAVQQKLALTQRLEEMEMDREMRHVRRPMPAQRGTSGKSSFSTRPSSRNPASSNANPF

Sequences of proteins named here, by UniProt entry; tags and fusion partners are left off.
UniProt P17210: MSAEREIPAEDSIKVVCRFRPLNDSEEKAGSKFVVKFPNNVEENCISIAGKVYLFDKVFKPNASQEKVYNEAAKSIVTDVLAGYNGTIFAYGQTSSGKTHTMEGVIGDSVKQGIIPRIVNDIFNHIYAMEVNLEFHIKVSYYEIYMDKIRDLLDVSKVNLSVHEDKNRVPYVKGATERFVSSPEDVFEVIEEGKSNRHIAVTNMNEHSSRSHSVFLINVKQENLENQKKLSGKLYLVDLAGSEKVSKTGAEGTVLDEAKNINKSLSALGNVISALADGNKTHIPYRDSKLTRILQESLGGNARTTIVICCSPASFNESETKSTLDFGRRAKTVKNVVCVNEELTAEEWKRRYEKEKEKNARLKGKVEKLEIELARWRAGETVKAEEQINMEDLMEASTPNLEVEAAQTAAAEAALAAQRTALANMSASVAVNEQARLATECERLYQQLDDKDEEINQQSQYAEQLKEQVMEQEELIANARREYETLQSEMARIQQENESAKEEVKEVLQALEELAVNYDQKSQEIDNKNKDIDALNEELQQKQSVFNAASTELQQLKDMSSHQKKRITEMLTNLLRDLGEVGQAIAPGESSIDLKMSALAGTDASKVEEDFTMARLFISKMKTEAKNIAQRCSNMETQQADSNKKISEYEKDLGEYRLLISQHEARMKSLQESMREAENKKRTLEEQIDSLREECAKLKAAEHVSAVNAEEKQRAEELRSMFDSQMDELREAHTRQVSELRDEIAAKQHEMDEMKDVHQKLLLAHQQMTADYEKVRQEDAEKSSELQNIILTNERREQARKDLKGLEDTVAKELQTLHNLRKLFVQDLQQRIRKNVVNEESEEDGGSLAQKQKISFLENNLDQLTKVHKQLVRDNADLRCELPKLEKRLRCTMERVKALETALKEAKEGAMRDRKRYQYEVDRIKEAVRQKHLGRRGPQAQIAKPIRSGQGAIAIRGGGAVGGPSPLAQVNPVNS
UniProt Q9NFU0: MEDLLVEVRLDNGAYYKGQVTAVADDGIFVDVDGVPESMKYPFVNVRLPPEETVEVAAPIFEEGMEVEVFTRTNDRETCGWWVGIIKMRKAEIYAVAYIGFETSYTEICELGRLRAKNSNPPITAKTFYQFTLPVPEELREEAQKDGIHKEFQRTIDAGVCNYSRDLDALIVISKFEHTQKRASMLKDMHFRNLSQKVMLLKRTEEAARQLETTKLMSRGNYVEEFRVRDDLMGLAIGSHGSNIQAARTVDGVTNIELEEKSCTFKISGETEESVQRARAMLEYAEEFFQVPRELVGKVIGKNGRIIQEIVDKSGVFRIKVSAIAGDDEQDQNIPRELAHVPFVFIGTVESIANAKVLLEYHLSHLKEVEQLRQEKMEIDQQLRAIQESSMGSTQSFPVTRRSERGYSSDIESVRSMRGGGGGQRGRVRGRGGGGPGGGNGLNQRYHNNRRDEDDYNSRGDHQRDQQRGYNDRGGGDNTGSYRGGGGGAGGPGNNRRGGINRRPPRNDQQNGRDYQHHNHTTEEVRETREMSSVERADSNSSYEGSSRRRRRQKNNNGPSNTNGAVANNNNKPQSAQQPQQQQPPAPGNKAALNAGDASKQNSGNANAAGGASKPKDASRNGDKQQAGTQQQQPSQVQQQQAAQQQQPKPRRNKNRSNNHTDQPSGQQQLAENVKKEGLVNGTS
UniProt P37276: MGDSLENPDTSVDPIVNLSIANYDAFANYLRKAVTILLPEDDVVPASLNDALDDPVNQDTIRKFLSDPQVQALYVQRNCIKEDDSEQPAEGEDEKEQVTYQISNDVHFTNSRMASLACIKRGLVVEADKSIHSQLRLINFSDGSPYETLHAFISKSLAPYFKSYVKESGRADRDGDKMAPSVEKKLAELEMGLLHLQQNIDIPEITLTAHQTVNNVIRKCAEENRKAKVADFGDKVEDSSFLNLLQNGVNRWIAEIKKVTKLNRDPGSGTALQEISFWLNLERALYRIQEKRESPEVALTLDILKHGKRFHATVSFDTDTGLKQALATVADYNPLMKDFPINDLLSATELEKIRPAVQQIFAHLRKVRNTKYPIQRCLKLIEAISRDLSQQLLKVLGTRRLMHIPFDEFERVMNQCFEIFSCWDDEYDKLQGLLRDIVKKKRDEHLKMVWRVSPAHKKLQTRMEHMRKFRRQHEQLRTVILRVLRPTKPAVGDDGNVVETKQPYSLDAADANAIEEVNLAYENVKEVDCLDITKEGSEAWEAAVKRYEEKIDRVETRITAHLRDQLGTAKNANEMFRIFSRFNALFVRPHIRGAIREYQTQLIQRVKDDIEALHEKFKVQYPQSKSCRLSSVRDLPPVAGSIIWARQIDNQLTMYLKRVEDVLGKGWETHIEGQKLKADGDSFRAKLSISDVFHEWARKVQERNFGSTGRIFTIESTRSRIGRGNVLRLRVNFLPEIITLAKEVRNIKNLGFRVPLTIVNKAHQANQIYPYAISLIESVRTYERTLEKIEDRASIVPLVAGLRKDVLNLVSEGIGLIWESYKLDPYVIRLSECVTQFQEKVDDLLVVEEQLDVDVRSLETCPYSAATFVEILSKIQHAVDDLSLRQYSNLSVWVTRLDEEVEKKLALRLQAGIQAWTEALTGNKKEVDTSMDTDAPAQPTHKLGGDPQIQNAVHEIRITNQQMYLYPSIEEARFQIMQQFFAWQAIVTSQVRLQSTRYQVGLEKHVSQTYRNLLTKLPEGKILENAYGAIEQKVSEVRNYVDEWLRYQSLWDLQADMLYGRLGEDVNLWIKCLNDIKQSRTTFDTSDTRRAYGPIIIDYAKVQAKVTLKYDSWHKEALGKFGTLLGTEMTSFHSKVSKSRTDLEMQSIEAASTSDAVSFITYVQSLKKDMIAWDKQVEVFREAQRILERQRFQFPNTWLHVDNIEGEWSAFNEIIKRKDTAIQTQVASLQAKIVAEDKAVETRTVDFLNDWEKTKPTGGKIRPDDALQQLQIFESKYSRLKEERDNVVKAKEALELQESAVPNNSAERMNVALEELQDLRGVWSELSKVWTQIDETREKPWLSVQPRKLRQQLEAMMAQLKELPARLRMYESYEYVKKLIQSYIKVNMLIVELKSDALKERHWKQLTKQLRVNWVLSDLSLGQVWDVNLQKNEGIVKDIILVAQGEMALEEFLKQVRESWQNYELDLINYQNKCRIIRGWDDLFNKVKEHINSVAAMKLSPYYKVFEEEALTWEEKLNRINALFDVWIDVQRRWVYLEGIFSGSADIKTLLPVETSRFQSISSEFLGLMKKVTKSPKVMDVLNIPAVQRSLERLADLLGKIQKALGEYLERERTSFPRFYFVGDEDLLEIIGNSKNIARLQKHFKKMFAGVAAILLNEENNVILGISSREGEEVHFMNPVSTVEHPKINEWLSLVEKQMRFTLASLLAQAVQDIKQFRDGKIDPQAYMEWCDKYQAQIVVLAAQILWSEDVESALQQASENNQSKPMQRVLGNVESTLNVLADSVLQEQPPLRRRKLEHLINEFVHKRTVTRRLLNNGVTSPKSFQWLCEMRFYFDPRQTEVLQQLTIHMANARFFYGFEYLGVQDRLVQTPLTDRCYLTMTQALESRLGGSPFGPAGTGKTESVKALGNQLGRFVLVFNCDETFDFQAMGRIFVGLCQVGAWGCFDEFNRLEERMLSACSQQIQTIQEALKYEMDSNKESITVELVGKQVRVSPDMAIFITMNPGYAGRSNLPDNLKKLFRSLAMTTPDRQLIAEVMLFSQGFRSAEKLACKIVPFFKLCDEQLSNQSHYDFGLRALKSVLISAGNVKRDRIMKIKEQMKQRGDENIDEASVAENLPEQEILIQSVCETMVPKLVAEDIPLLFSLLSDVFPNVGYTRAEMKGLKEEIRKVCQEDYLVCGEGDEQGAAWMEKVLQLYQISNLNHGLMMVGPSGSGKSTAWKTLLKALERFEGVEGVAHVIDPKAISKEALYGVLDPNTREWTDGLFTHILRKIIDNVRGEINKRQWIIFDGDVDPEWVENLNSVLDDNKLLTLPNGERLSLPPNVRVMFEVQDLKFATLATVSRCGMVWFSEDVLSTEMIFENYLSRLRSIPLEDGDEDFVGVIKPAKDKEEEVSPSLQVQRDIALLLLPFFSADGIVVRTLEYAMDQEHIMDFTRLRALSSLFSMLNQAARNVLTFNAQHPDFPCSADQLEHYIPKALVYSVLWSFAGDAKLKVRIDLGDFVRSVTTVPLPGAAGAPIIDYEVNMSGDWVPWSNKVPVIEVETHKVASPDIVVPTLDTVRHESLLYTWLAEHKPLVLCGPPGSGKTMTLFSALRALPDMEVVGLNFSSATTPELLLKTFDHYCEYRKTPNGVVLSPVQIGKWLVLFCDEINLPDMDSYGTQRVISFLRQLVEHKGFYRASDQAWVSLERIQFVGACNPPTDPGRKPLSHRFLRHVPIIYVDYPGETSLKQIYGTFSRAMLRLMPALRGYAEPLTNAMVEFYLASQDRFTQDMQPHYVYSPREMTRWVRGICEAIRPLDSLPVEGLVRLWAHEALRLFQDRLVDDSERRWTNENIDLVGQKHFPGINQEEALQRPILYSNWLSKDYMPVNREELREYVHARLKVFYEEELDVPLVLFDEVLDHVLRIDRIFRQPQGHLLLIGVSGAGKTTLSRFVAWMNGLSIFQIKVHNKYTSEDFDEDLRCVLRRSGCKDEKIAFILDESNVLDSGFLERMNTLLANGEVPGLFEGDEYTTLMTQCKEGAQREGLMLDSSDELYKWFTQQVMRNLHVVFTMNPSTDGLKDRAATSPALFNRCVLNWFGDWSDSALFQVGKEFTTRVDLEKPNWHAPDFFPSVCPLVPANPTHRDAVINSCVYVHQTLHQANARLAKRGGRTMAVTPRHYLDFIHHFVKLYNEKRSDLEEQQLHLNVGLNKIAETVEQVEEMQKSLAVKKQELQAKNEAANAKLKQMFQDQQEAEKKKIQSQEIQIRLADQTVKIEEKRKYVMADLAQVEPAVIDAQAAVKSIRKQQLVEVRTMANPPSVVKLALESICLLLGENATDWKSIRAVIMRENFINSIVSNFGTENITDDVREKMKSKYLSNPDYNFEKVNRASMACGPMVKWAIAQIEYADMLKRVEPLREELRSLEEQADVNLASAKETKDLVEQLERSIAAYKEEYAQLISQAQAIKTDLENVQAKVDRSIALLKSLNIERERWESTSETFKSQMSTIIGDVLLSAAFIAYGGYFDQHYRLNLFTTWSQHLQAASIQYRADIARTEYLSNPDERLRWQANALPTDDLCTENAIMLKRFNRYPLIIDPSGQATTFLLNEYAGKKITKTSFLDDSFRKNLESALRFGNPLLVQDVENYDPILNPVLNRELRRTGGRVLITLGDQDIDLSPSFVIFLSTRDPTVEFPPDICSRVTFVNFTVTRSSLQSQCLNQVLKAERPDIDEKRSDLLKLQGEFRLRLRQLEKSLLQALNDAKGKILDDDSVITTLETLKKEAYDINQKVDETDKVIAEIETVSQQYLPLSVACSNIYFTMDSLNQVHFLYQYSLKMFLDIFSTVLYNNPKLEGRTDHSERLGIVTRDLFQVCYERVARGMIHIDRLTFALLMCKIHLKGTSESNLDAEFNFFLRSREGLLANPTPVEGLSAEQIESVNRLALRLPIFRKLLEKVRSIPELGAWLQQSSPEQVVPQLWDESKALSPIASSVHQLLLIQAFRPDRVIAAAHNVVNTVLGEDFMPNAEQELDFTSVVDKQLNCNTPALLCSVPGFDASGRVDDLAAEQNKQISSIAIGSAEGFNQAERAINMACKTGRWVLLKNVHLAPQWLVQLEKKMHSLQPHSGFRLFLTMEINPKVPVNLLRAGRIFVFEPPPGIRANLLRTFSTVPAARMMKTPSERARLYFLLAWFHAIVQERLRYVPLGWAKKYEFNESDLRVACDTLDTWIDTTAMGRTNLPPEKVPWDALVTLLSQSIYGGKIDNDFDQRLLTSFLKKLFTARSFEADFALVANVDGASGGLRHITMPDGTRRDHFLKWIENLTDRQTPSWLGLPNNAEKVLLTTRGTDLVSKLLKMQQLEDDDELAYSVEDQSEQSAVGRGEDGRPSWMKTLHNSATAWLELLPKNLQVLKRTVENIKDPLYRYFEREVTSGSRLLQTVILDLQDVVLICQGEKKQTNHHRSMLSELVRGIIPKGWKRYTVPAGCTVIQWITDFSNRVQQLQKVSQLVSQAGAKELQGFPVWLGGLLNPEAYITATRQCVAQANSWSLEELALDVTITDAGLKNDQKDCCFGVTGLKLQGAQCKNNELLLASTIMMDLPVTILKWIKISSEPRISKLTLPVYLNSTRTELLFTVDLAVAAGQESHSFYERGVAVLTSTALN
UniProt O18334: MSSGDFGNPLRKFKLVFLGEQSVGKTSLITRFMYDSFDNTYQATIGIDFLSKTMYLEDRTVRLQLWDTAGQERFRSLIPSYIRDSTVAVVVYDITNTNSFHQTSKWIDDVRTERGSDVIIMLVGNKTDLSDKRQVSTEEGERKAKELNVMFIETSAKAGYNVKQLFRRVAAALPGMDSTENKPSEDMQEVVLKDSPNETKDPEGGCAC

[2] = molecular target: T2, Trbo-Dmn (Dynamitin (Dmn)/p50 tagged with TurboID on its N-terminus) (Drosophila) (UniProt Q7K2D2)
T2 sequence: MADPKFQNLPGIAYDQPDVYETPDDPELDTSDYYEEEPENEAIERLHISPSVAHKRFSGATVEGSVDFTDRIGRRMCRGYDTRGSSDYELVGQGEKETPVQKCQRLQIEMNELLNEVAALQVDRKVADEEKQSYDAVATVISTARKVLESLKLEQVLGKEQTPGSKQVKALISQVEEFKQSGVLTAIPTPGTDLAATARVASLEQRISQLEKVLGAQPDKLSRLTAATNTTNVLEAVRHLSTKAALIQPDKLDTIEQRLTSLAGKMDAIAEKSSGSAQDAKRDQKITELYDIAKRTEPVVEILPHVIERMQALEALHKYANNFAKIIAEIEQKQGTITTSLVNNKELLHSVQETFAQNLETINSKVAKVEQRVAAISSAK

[3] = molecular target: T3, Trbo-BicD_R688A (Drosophila) (UniProt P16568)
T3 sequence: T1 sequence with R688A

[4] = molecular target: T2, Trbo-Dmn (Dynamitin (Dmn)/p50 tagged with TurboID on its N-terminus) (Drosophila); remark: listed apart in the source
[5] = molecular target: T1, Trbo-BicD (wild-type Bicaudal-D tagged with TurboID on its N-terminus) (Drosophila); remark: listed apart in the source

Molecule: Kinesin heavy chain (Khc) (from UniProt P17210 1-975)
binding [1]: binds

B1: Me31b (protein, UniProt P23128 1-459)
chain: MMTEKLNSGHTNLTSKGIINDLQIAGNTSDDMGWKSKLKLPPKDNRFKTTDVTDTRGNEFEEFCLKRELLMGIFEKGWERPSPIQEAAIPIALSGKDVLARAKNGTGKTGAYCIPVLEQIDPTKDYIQALVMVPTRELALQTSQICIELAKHLDIRVMVTTGGTILKDDILRIYQKVQLIIATPGRILDLMDKKVADMSHCRILVLDEADKLLSLDFQGMLDHVILKLPKDPQILLFSATFPLTVKNFMEKHLREPYEINLMEELTLKGVTQYYAFVQERQKVHCLNTLFSKLQINQSIIFCNSTQRVELLAKKITELGYCCYYIHAKMAQAHRNRVFHDFRQGLCRNLVCSDLFTRGIDVQAVNVVINFDFPRMAETYLHRIGRSGRFGHLGIAINLITYEDRFDLHRIEKELGTEIKPIPKVIDPALYVANVGASVGDTCNNSDLNNSANEEGNVSK
binding [3]: binds

B3: Bicaudal-D (BicD), endogenous (protein, UniProt P16568 1-782)
chain: T1 sequence
binding [4]: binds

B4: RanGAP (protein, UniProt Q9VIW3 1-596)
chain: MSTFNFASMAAQLGQEQGISFENKVLSWNTAADVQDVVDALNKQTTVHYLNLDGNTLGVEAAKAIGEGLKRHPEFRKALWKNMFTGRLISEIPEALKHLGAALIVAGAKLTVLDLSDNALGPNGMRGLEELLRSPVCYSLQELLLCNCGLGPEGGSMLSRALIDLHANANKAGFPLQLRVFIGSRNRLEDAGATEMATAFQTLKTFEEIVLEQNSIYIEGVEALAESFKHNPHLRVLNMNDNTLKSEGAEKIAEALPFLPLLREMSFGDCLIKTNGAYHFGEALERGNERLEVIDLGFNEINSDGGLVLVNAMGNKPKLRILNLDGNSFGEEGSEKIISEMSKLPTAAALQPFQHQEEEDLEDEYQADKQDADYEEEEEVHEHANDTTEEADEDSEGDEDDEEDEGDEEYSNVAEETAYVTTNAYTTKLFNDTTNSMASETFAVANKTISQKCTPEKFCLSQKPCSQEDFDSLDMDNKLEALQSIVNQFTGDNHLLLLVFTTLKCAHLSQSSKAALDLAVSLYQATFDYAIKTKQETRVLNYVLMQLRLLPCKEVFHSDYDVKNCRFALREALKQPTFANDNIKNSFKTFLEGAES
binding [5]: binds

The next lines start with the values.

binding [1]: binds
Molecule: Fmr1 (fragile X messenger ribonucleoprotein 1) (from UniProt Q9NFU0 1-684)

binding [2]: binds
binding [1]: binds
Molecule: Dynein heavy chain (Dhc) (from UniProt P37276 1-4639)

binding [1]: no binding
Molecule: Rab6 (endogenous) (from UniProt O18334 1-208)

binding [3]: binds
B2: Cup (protein, UniProt Q9VMA3 1-1117)
chain: MQMAEAEQENGAGALKIATNAGATDRPAHQQLPLPVEDQQDEVLTPAEKGKFEYPPPPPPPTPVQAPLATKATALNASQEHDDDEANSEKWEDPCAPPPPPPLPTSAFLATGLGYLKLPAFKLKDALEKAITKLEANKRTLKASPESSRSIKNKNVVALEMLPRRSNPETIGDGSMLASTSTAVMLQTKKPAVIVEMERRCKIINLLAKQNQILESISGEAIPMHGPSKHLHEDEGLTLQVLSARASTPYTQPSSMLSCTAVSCDLEHDSPRKQVASKEAVPEQQSSQVQQKRPPSTGIHKPGSLRAPKAVRPTTAPVVSSKPVKSYTRSRLMDIRNGMFNALMHRSKESFVMPRIATCDDIELEGRLRRMNIWRTSDGTRFRTRSTTANLNMNNNNNNECMPAFFKNKNKPNLISDESIIQSQPPQPQTEFQDPAIVNQRRIGSGRLNHSKWGYNDEDYHSYHNGKSQHMEEVNSKNSKNMTVLQFFDNGEISSQPQRRPNTPVMGMSINRSENDTLHSNESSEDLSRANENYVKRVMSGFLVVSKPKSRDVEDRHHRRYRNQNEEPEWFSCGPTSRLDTIELCGFDEDEEKMLKEGNKNHGLGETERETSKQKMDHKYKWTHAEPMGRSKYMPKHDTNNNHNVENMNNVMATEHQQQKEEKRPGSGRSFQFDKFNQSQQNYESSSYVNHQQPPQTQPQQMQQQSNTNTNNSKFMSFFANEGNSSSSSLNEFFKQAINQGHGNNPEQPKSLGHIGQMPSVDQLEAKWRRNSLNNVGETANKQTDNFQKLIGSLSSAKPQSQAVGYDAISNFIMQQQQYQQQQQKQHLIIQQQQQHTAFLASLQLKAILGRADTQLLLLRLTKGEISKHGLLVQLANPRLTDMDREAITAVLQFTNTQQQQQQHKQQLDMLSSTVIASQLQNLHNLAIVQQTLAARQQPQHNPQTQAPHQLSQEDLQAHANVIMRNAVMKRKIEEQTSKLINGGAKHQAQQQYLNRGQQRQARPDANSNALLHALISGGGNNHASGYPMNGQPQKHHSNLRFGDNQNFQSFESNQPHFATQYKQQYQQSQQQHPHQQPQQLNSLHQNNAGAVNSFNKAQMQAQSAISMLPNSGDEFH

Source: paper doi:10.1101/2023.09.11.557182
